# Source: PubChem BioAssay AID1347423 (Functional Genomics Laboratory (NCATS/FGL), 2020)
# In all, about 52,000 sequences went through this assay and about 210 (0.4%) were called active.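 Rule for the calls: active = gene whose silencing raises cell survival under the drug, median off-target-corrected z-score across its silencing RNAs 2 or more; inactive = the rest.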 This is one part of the list.
# Test: Resistance to Poly (ADP-Ribose) Polymerase inhibitor: Gene Identification via Genome-wide siRNA Screen
# Settings: mouse BRCA2 R2336H ES cells, olaparib, CellTiter-Glo viability; active compounds read high
# Method in brief: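 Genome-wide siRNA screen (3 siRNAs/gene, 20 nM) in mouse ES cells carrying hypomorphic BRCA2 R2336H; olaparib 500 nM added 48 h post-transfection, CellTiter-Glo viability 72 h later. Normalized to plate-median negative control; MAD z-scores, gene median, seed-adjusted.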
row,Sequence,z-score
1,CCGAAAAUGGUUAGGACAUTT against Kynu,inactive: -1.43
2,GGUUUGUUUACUCCUUUUGTT against Olfr876,inactive: 1.67
3,GCAUCUCAAAGUGUCACUATT against Ubxd3,inactive: 2.41
4,CGAGUUAUCCAAUAGCAUCTT against Rab12,inactive: 0.532
5,GCCGAUAUUGUGACAAGAUTT against Cd72,inactive: 0.165
6,GGUGGAUAAAACCAAAAUGTT against Orc6l,inactive: -1.7
7,GGGAGACAGUGAUGGUUACTT against Ihpk1,inactive: -0.283
8,CCAGAAGACCUUUUACCUGTT against Il1rn,inactive: 0.314
9,GGAUCAGGUGUGUGAGUCCTT against Gzmc,inactive: -1.34
10,GGAAGUCCACUUUUUUGUGTT against Cpb2,inactive: 0.378
11,CGAAUACGUGUCAUGAUUUTT against Gbas,inactive: 0.417
12,GGAAUAGGACCUAUGUCUGTT against Nr2e1,inactive: -0.326
13,GGUCUUUGAGUCUACACAGTT against Usmg4,inactive: -0.311
14,CGUUUCAAUCAGAGGACUUTT against Gig1,inactive: -0.363
15,GGCUCUUGAUACGAAUGUATT against Aadac,inactive: -2.16
16,GGCUGGAGUCAAAGGAAAGTT against Nudt4,inactive: -1.5
17,GGAUAAUGGUUUAAAACUCTT against B630005N14Rik,inactive: 0.48
18,GGAUGGUUACAAAAGAGAUTT against Dspp,inactive: 0.806
19,GCCACGUUCCUCAUCGAUUTT against Plscr3,inactive: 0.887
20,GCCAACUGGAUAUUAACAATT against Dnm1l,inactive: -1.36
21,GGAUCUAUAUCCAGUAGAGTT against Smcr7,inactive: 2.29
22,CCAACGUGAGCAUAUUAUATT against Adcy2,inactive: 0.104
23,GGACAUUAGAGAUUUCCGATT against Isyna1,inactive: 0.203
24,GGCUGUGAUAUUGUUAUUCTT against E130119P06Rik,inactive: 0.823
25,GGAGUAUGCUCAGGUGAUCTT against Eif1a,inactive: -0.23
26,CGAUCUGCUAUCAUAAGCATT against A630005I04Rik,inactive: -0.553
27,GGGACUUCCAAGGAAAGUGTT against Dbi,inactive: -1.33

row,Sequence,z-score
1,CCAGUGUGGAGGAAAGUACTT against Gm123,inactive: -0.523
2,GGCUUAAACACCUCCAAUGTT against Catnd2,inactive: -1.63
3,CCAACUACACACUACGCAUTT against Grik5,inactive: 0.98
4,CCGACUACGUCAAUUGGUUTT against Fbxo21,inactive: 0.127
5,GGAUCCAUGCUGUCAGUGGTT against Sftpa1,inactive: -0.283
6,GGGUAACGUGCUGCUUCUATT against Bri3,inactive: -0.647
7,CCCAUCUUCAGAUUGUGCATT against B230362M20Rik,inactive: 0.00113
8,GGCUUUCAAGGGUUGCCAATT against Ms4a3,inactive: 1.36
9,GGUCUAAUAUAAACGGGCCTT against Ppp4r2,inactive: -0.463
10,GGCCAUGGAAAAGUUCCGUTT against Kcna3,inactive: 0.353
11,GGCUGUAGUGGUGCUAAUUTT against Slc10a2,inactive: -1.01
12,GGCAUUGGUGUUUCAUUAATT against Gpm6a,inactive: 0.397
13,GGUUGUCCCACAUACUUCCTT against Nr1d1,inactive: 0.227
14,CCCAAAGUGGUAUCCAAAGTT against 6030498E09Rik,inactive: -2.45
15,GCCUCCAUGGGAAAUCAAGTT against Zfp37,inactive: 0.292
16,GGCUGAAAAGGAAAAUCCATT against Pdcd10,inactive: 0.348
17,GGAAGACCAGCACUUGAAATT against Klhl13,inactive: 0.293
18,GCAGAUGCUAACAUAUCCATT against Trim32,inactive: 0.38
19,GGCUGCCAGUCAACUUUCUTT against Krtap14,inactive: -1.43
20,GCUUAAACUACAGCCCGAGTT against Spag5,inactive: -0.257
21,CCGUUUACCAACCAAGAAUTT against Tnfrsf17,inactive: 0.972
22,GGGAUUCUGUCCUUGGUCATT against Havcr2,inactive: -1.3
23,GCUUUGACUACAUCUGAGGTT against 1200003M09Rik,inactive: -0.219
24,GGACCUGUCUGAAGACUUGTT against Asf1a,inactive: -0.321
25,CGAUCUUGAUUAGUUUCAUTT against Plp1,inactive: 0.411
26,GCUUUGACUACGAGGAUUATT against Ets1,inactive: 1.5
27,GGGUUUUAGAAUUGCUCUUTT against Tst,inactive: -0.255

# Four entries from above, reformatted:
row	Sequence	z-score
6	GGGUAACGUGCUGCUUCUATT against Bri3	inactive: -0.647
7	CCCAUCUUCAGAUUGUGCATT against B230362M20Rik	inactive: 0.00113
8	GGCUUUCAAGGGUUGCCAATT against Ms4a3	inactive: 1.36
9	GGUCUAAUAUAAACGGGCCTT against Ppp4r2	inactive: -0.463

# (list continues)

row,Sequence,z-score
1,GCUAAAGAACGUGCCAAUGTT against Sfrs10,inactive: 0.101
2,GGAAACUACAAAUUUGGCATT against Krtap6-2,inactive: 1.3
3,GGAACUGGUCUCAGAAGAGTT against Cd79b,inactive: -0.521
4,GGUACUUUGUGGGAGAAGATT against Actrt1,inactive: -0.104
5,GGAUGUGAUGAAGUUGGCCTT against Olfr78,inactive: 2.19
6,GGACAACAAAUUUCGACUATT against Trappc6b,inactive: 0.218
7,GGAGGAAGAGAUUUUAAACTT against Rps8,inactive: -2.59
8,CCAGAAUACUGGGAUACAATT against AB114826,inactive: -0.722
9,GGUUUUUUAAGUUCAGCCGTT against Got2,inactive: 1.23
10,GGCUGUCUAUAAGAAUGUUTT against Nup210,inactive: -1.16
11,GCAUGAUCUCAUGUUCCUUTT against D4Ertd89e,inactive: -0.0953
12,GGAGGUGGAAAAUCUGUACTT against Cdca8,inactive: -0.762
13,GGCCGUUUCACUACCAUUCTT against Ier2,inactive: -0.359
14,GGGAGGAAAUGAAUGAAUUTT against Gypc,inactive: -0.419
15,GGAUUUUAGAAGUAAUGGGTT against Rog,inactive: 0.677
16,GGAGUUUCUGGAAGAGAUCTT against Ube3b,inactive: 0.344
17,GGAGAUCGCACCUAAGAUUTT against Pgam2,inactive: 0.325
18,GGCUUGCUUUGCUUCCCUUTT against 1500003D12Rik,inactive: 0.588
19,GCCAUAAGGCAGAAUCCAATT against 4933406E20Rik,inactive: 0.26
20,GCGAGUUGUAACAUUGCCATT against St14,inactive: -1.98
21,GGAGAUUGGCAUCCAGAACTT against D130074J02Rik,inactive: 0.312
22,GGAAAAUGUUUCUGAUGAATT against Nfat5,inactive: -0.901
23,GGUCACUGGAGCUUUAAUATT against Olfr705,inactive: 1.29
24,GCUGCCAAAGUGACAUAGATT against Notch3,inactive: 1.41
25,GGUUAUCCAGAGAGUGCAUTT against 1110036H21Rik,inactive: 0.169
26,GCCGCACUAAAUUCUCUUATT against H2-Oa,inactive: 0.502
27,GGAUAUGAAACACCAGAUCTT against Birc1b,inactive: -1.36

row,Sequence,z-score
1,GGUUGAUGGGAAAACAAUATT against Rab11a,inactive: -0.166
2,GGAUGAAGUGUGUUUUGGCTT against Sim1,inactive: 2.53
3,GGCCACCUAAAACUAUAUATT against Cd59a,inactive: -1.7
4,GGAAAAGAAAGAAGCUUUUTT against 2600005C20Rik,inactive: -0.861
5,CCUGGAGAUUCAGUACGAATT against 4631426H08Rik,inactive: 0.104
6,GGAUCAAAUUACAGAUCUUTT against Eef1e1,inactive: -2.2
7,CCCAAUGUUUCUAAUCAUGTT against Arhgap12,inactive: 0.506
8,GCUUUGGAUAGUAGACAGCTT against MGC65590,inactive: 0.73
9,GGAAAGAAUGAGGAUGUGGTT against Pitx2,inactive: -0.64
10,GGUAAAAGUGGGUAGGAAATT against Ptprh,inactive: 0.929
11,GAUCUUCACCAAUAAGUGUTT against 1110060O18Rik,inactive: 1.37
12,GGAGUGUAAUAACUUCUUATT against E430025E21Rik,inactive: -0.323
13,GGAGAACAUCAAGAACAAUTT against Ap2m1,inactive: -0.626
14,GGCAAUUUGUGGAUUAUUGTT against Olfr1105,inactive: -0.926
15,GGAGUGGUAUUUUUACAAUTT against Slc34a1,inactive: 0.474
16,GGAAGAAACGGAGACUCAATT against Neud4,inactive: 0.699
17,GGGCACGAUCCUCUUCAACTT against Nr0b2,inactive: 2.12
18,CGAGUUCCUAUGUUGGUGCTT against Cldn2,inactive: 5.71
19,GGAAGUUGUUUUGUUGGACTT against Epha2,inactive: -0.878
20,GGAUGAGAACAACUCUGCUTT against AI841794,inactive: 2.76
21,GGAUUUUCUUACACGGAUGTT against Cyct,inactive: -1.09
22,GGCAUUUUCACAAAAGACUTT against Rab23,inactive: -1.35
23,GGCUUUUGGCUUCAACCCUTT against Slc39a14,inactive: -0.434
24,GGUACGGACCCACAUUCAATT against C530024P05Rik,inactive: -0.785
